No constants are given. Whether binding was seen depends on the method and setting. Binding seen in cells or lysates may run through a third protein.

Chains of the proteins cited; added tags and fusions are not shown.
UniProt O70133: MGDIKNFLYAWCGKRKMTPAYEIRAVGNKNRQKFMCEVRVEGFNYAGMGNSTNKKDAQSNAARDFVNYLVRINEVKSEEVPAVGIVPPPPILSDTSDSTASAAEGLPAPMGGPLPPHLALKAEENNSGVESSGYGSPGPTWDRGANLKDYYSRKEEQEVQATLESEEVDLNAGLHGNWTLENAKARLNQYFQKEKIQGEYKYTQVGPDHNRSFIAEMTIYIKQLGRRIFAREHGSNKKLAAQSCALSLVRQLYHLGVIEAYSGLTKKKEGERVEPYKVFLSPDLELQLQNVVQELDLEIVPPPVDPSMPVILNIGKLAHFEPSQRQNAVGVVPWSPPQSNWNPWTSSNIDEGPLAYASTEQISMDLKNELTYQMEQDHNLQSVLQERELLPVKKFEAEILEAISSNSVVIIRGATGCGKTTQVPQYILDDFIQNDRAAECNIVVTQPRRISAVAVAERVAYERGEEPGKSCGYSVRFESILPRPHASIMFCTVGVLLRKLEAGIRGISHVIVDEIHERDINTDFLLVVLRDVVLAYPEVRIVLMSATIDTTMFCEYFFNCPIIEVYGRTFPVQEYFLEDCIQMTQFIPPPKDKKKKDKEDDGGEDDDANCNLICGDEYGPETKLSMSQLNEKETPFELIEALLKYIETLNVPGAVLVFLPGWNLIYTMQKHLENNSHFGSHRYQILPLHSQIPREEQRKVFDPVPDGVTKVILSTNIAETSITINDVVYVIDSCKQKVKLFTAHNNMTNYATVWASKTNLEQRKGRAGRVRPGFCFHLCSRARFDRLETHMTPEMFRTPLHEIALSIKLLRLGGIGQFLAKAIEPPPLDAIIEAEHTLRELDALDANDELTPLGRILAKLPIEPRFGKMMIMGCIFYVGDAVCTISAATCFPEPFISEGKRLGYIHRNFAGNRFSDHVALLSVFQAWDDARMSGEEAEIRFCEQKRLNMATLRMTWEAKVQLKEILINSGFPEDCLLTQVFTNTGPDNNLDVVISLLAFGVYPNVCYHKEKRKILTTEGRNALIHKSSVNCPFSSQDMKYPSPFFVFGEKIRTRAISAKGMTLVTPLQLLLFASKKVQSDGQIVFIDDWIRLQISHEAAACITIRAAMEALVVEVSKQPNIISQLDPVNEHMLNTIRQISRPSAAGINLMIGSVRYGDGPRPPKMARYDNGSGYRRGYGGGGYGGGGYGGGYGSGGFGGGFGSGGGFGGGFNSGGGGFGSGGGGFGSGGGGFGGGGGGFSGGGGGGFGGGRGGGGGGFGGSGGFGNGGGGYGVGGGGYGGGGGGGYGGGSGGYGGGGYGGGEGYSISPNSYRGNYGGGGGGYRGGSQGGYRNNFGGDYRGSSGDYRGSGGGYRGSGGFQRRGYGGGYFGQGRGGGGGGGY

Experimental findings from article PMC10847742 are described below.

In the test the target is DExH-box helicase 9 (mouse (endogenous in hippocampus)) (UniProt O70133). The experiment in a line: co-IP; endogenous proteins in mouse hippocampus; Catch & Release v2.0 Reversible Immunoprecipitation System; antibodies to DHX9, STAU1 and FRMP; murine IgG or rabbit IgG as negative control.

B1: staufen double-stranded RNA binding protein 1 (protein, UniProt Q9Z108 1-487)
chain: MYKPVDPHSRMQSTYSYGMRGGAYPPRYFYPFPVPPLLYQVELSVGGQQFNGKGKMRPPVKHDAPARALRTLQSEPLPERLEVNGREAEEENLNKSEISQVFEIALKRNLPVNFEVARESGPPHMKNFVTRVSVGEFVGEGEGKSKKISKKNAARAVLEQLRRLPPLPAVERVKPRIKKKSQPTCKTAPDYGQGMNPISRLAQIQQAKKEKEPEYMLLTERGLPRRREFVMQVKVGHHTAEGVGTNKKVAKRNAAENMLEILGFKVPQAQPAKPALKSEEKTPVKKPGDGRKVTFFEPSPGDENGTSNKDEEFRMPYLSHQQLPAGILPMVPEVAQAVGVSQGHHTKDFTRAAPNPAKATVTAMIARELLYGGTSPTAETILKSNISSGHVPHGPRTRPSEQLYYLSRAQGFQVEYKDFPKNNKNECVSLINCSSQPPLVSHGIGKDVESCHDMAALNILKLLSELDQQSTEMPRTGNGPVSACGRC
Turning to B1, the binding entry is recorded as “no binding”.
